Reference: the supplement of paper PMC8975748
Structures can show the parent of a compound that is named as a salt. ± gives the standard deviation of the averaged measurements. This is one part of the list. Values are raw readings; no control value is given beside them.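 A single yeast strain with four plasmids, each encoding a fluorescent protein and an amino-acid or uracil biosynthesis gene, seeds the community. Stochastic plasmid loss yields mixed prototroph and auxotroph subpopulations. Fixed cells were counted via automated confocal fluorescence imaging; DMSO-treated wells were the vehicle reference.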

System: Saccharomyces cerevisiae BY4741 SeMeCo community
Assay: imaged cell count per well (cells); higher = more cells
Details: 10 µM; 24 h; SM minimal medium
Protocol: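 Same SeMeCo high-content imaging drug screen: Selleck FDA-approved drugs at 10 µM, 24 h in SM medium, 384-well plates, 3 replicates.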

SMILES | imaged cell count per well
CCn1cc(C(=O)O)c(=O)c2cc(F)c(N3CCNCC3)cc21 [Norfloxacin] | 28200 ± 4300
CC/C=C(\C(=O)N[C@@H]1C(=O)N2C(C(=O)OCOC(=O)C(C)(C)C)=C(COC(N)=O)CS[C@H]12)c1csc(N)n1 [Cefcapene Pivoxil Hydrochloride] | 23700 ± 12000
O=C(NCCN1CCOCC1)c1ccc(Cl)cc1 | 24900 ± 6200
CCn1cc(C(=O)O)c(=O)c2cc(F)c(N3CCN(C)CC3)cc21 [Pefloxacin Mesylate Dihydrate] | 19900 ± 7500
CC(C)n1c(/C=C/C(O)CC(O)CC(=O)O)c(-c2ccc(F)cc2)c2ccccc21 (stereo not drawn) [Fluvastatin Sodium] | 2970 ± 510
C[N+]1(C)CCC(=C(c2ccccc2)c2ccccc2)CC1 [Diphemanil Methylsulfate] | 20800 ± 8100
COc1cc(O)c(C(=O)Nc2nc(C(=O)NCCN(C(C)C)C(C)C)cs2)cc1OC [Acotiamide hydrochloride] | 24800 ± 5000
CCOC(=O)c1ccc(O)cc1 [Ethylparaben] | 17700 ± 9300
CC(=O)O[C@]1(C(C)=O)CC[C@H]2[C@@H]3C[C@H](C)C4=CC(=O)CC[C@]4(C)[C@H]3CC[C@@]21C [Medroxyprogesterone acetate] | 21000 ± 4300
CN1CCN(C2=Nc3ccccc3Oc3ccc(Cl)cc32)CC1 [Loxapine Succinate] | 21000 ± 10000
CCOC(=O)c1ccc(N)cc1 [Benzocaine] | 25400 ± 6300
CC(C)c1nc(N(C)S(C)(=O)=O)nc(-c2ccc(F)cc2)c1/C=C/[C@@H](O)C[C@@H](O)CC(=O)O [Rosuvastatin Calcium] | 9710 ± 1000
O=C1OCCN1/N=C/c1ccc([N+](=O)[O-])o1 [Furazolidone] | 20900 ± 4200
CCOC(=O)c1c(CSc2ccccc2)n(C)c2cc(Br)c(O)c(CN(C)C)c12 [Arbidol HCl] | 15200 ± 1800
CC(C)c1c(C(=O)Nc2ccccc2)c(-c2ccccc2)c(-c2ccc(F)cc2)n1CC[C@@H](O)C[C@@H](O)CC(=O)O [Atorvastatin Calcium] | 11100 ± 2400
Nc1c(CC(=O)O)cccc1C(=O)c1ccccc1 [Amfenac Sodium Monohydrate] | 19600 ± 8100
C[C@]12CC[C@@H]3c4ccc(O)cc4C[C@@H](CCCCCCCCC[S+]([O-])CCCC(F)(F)C(F)(F)F)[C@H]3[C@@H]1CC[C@@H]2O (stereo partly drawn) [Fulvestrant] | 23500 ± 4100
CN[C@@H]1[C@H](O[C@H]2[C@H](O[C@H]3[C@H](O)[C@@H](O)[C@H](NC(=N)N)[C@@H](O)[C@@H]3NC(=N)N)O[C@@H](C)[C@]2(O)CO)O[C@@H](CO)[C@H](O)[C@H]1O [Dihydrostreptomycin sulfate] | 20200 ± 6800
O=c1ccc2ccc(OCCCCN3CCN(c4cccc5sccc45)CC3)cc2[nH]1 [Brexpiprazole] | 26900 ± 2900

Three entries drawn at random from those above:
SMILES | imaged cell count per well
CCOC(=O)c1ccc(O)cc1 [Ethylparaben] | 17700 ± 9300
O=C(NCCN1CCOCC1)c1ccc(Cl)cc1 | 24900 ± 6200
CC(C)n1c(/C=C/C(O)CC(O)CC(=O)O)c(-c2ccc(F)cc2)c2ccccc21 (stereo not drawn) [Fluvastatin Sodium] | 2970 ± 510

Following part

SMILES | imaged cell count per well
Clc1ccc(C(Cn2ccnc2)OCc2ccsc2Cl)c(Cl)c1 (stereo not drawn) [Tioconazole] | 3050 ± 680
NS(=O)(=O)c1cc(C(=O)O)c(NCc2ccco2)cc1Cl [Furosemide] | 25000 ± 1500
CCc1nc(N)nc(N)c1-c1ccc(Cl)cc1 [Pyrimethamine] | 26500 ± 6400
CO/N=C(\C(=O)N[C@@H]1C(=O)N2C(C(=O)O)=C(CSc3nnnn3C)CS[C@H]12)c1csc(N)n1 [Cefmenoxime hydrochloride] | 21600 ± 11000
COCCCOc1ccnc(C[S+]([O-])c2nc3ccccc3[nH]2)c1C (stereo not drawn) [Rabeprazole] | 23200 ± 6100
CC1=C(C(=O)OC(C)C)C(c2cccc([N+](=O)[O-])c2)C(C(=O)OC2CN(C(c3ccccc3)c3ccccc3)C2)=C(N)N1 (stereo not drawn) [Azelnidipine] | 26500 ± 9200
O=C1C(N(CO)C(=O)NCO)N(CO)C(=O)N1CO (stereo not drawn) [Diazolidinyl urea] | 28900 ± 3300
CN1C(C(=O)Nc2ccccn2)=C(O)c2ccccc2S1(=O)=O [Piroxicam] | 21000 ± 2400
CCN(CC)CCNC(=O)c1cc(S(C)(=O)=O)ccc1OC [Tiapride Hydrochloride] | 13200 ± 6900
CN[C@H](CC(C)C)C(=O)N[C@H]1C(=O)N[C@@H](CC(N)=O)C(=O)N[C@H]2C(=O)N[C@H]3C(=O)N[C@H](C(=O)N[C@H](C(=O)O)c4cc(O)cc(O)c4-c4cc3ccc4O)[C@H](O)c3ccc(c(Cl)c3)Oc3cc2cc(c3O[C@@H]2O[C@H](CO)[C@@H](O)[C@H](O)[C@H]2O[C@H]2C[C@](C)(N)[C@H](O)[C@H](C)O2)Oc2ccc(cc2Cl)[C@H]1O [Vancomycin] | 22600 ± 5500
Clc1ccc(CCC(Cn2ccnc2)Sc2c(Cl)cccc2Cl)cc1 (stereo not drawn) [Butoconazole nitrate] | 2860 ± 580
O=S1(=O)CCN(CN2CCS(=O)(=O)NC2)CN1 [Taurolidine] | 25900 ± 7500
CCN1CCN(C(=O)N[C@@H](C(=O)N[C@@H]2C(=O)N3[C@@H]2SC(C)(C)[C@@H]3C(=O)O)c2ccccc2)C(=O)C1=O [Piperacillin Sodium] | 22200 ± 4600
CO[C@@H]1[C@@H](OC(N)=O)[C@@H](O)[C@H](Oc2ccc3c(O)c(NC(=O)c4ccc(O)c(CC=C(C)C)c4)c(=O)oc3c2C)OC1(C)C [Novobiocin Sodium] | 21900 ± 2100
N#CC(c1ccc(Cl)cc1)c1c(Cl)cc(-n2ncc(=O)[nH]c2=O)cc1Cl (stereo not drawn) [Diclazuril] | 20400 ± 2300
COC(=O)C1=C(C)NC(C)=C(C(=O)OCC(C)C)C1c1ccccc1[N+](=O)[O-] (stereo not drawn) [Nisoldipine] | 22300 ± 960
Cc1c(OCC(F)(F)F)ccnc1C[S@@+]([O-])c1nc2ccccc2[nH]1 [Dexlansoprazole] | 30100 ± 3100
COc1ccnc(C[S+]([O-])c2nc3cc(-n4cccc4)ccc3[nH]2)c1C (stereo not drawn) [Ilaprazole sodium] | 21800 ± 5600
CCC(C)(Oc1ccc(C2(c3ccc(OC(C)(CC)C(=O)O)cc3)CCCCC2)cc1)C(=O)O (stereo not drawn) [Clinofibrate] | 11200 ± 5600
